Test results taken from patent publication US6673843B2 (Emory University, priority 1999, dated 2004).
For at least one compound, name, drawing or mass did not settle the structure.

How the values were obtained:
[1] = system: omithine decarboxylase induction and promotion of mouse skin; conditions: oral administration; Huang et al. 1995; cited from earlier work
[2] = system: quinone reductase [NAD(P)H:(quinone-acceptor) oxidoreductase, EC1.6.99.2] in murine Hepac1c7 cells; assay: Phase II enzyme induction (quinone reductase); type: cell-based
Description: Several plant-derived compounds with anticancer and chemopreventive activities also show the ability to induce phase II detoxifying enzymes, including quinone reductase.

SMILES	inhibition of phorbol ester-stimulated ornithine decarboxylase induction and promotion of DMBA-initiated mouse skin [1]	ability to induce phase II enzymes (in words) [2]
COc1cc(/C=C/C(O)=C/C(=O)/C=C/c2ccc(O)cc2)ccc1O [Demethoxycurcumin, demethoxycurcumin]	able to inhibit	
COc1cc(CCC(=O)CC(=O)CCc2ccc(O)c(OC)c2)ccc1O [Tetrahydrocurcumin, tetrahydrocurcumin]		little ability to induce phase II enzymes
